Assay results published in PubChem BioAssay AID1671190 (National Center for Advancing Translational Sciences (NCATS), 2021).
The campaign covered roughly 580,000 compounds. About 6,100 (1.1%) were called active. The shares of active, inactive and inconclusive entries below differ from those in the screen. Calls follow the shape of the dose curve; as a rule, active = well fitted inhibition curve with a large enough effect; inconclusive = small, poorly fitted or top-dose-only effect, or another doubt; inactive = no such curve, though single readings can be large or run the other way. A potency beside an inconclusive call is a rough fit, not a confirmed value.

By UniProt entry, the sequences of proteins in these tests, tags left out. Where a name states a change or a piece, a line headed by the entry shows the natural chain unless it says otherwise.
UniProt P18054: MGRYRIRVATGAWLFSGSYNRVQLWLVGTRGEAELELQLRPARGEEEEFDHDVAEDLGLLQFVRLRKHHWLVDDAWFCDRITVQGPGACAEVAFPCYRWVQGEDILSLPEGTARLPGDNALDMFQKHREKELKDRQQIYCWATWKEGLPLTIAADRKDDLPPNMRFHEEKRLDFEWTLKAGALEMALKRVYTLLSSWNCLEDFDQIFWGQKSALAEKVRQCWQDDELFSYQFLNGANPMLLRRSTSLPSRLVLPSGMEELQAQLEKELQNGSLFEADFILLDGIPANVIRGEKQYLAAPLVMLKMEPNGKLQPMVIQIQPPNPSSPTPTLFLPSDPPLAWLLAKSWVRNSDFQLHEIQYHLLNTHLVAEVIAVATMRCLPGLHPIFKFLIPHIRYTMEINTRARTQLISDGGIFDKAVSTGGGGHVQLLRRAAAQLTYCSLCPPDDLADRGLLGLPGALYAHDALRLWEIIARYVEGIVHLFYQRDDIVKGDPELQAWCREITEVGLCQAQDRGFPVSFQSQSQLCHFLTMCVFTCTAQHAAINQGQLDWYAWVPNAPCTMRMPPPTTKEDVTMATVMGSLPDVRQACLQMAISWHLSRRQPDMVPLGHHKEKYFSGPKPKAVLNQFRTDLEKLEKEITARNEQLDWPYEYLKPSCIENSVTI

These compounds were tested against Polyunsaturated fatty acid lipoxygenase ALOX12 (Homo sapiens) (UniProt P18054) (assay: Primary qHTS assay for inhibitors of human arachidonate 12S-lipoxygenase (ALOX12): Round 2). Settings: purified 12hLO, xylenol orange hydroperoxide absorbance; series mostly up to 108 µM.
How it was run: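 Purified human 12hLO at 150 nM in 25 mM Hepes, 0.01% Triton X-100, pH 7.0, preincubated 15 min at room temperature with compound. Reaction started with 40 uM arachidonic acid, 30 min at room temperature. Hydroperoxide measured by Fe-xylenol orange, 573/405 nm absorbance ratio.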
Potency is read from the fitted curve at half-maximal effect.

Structure (SMILES) | Potency
CCCC12CN(C(=O)c3ccccc3)CC(C)(CN(C(=O)c3ccccc3)C1)C2=O | inactive
COc1cc(OC)c(C=Cc2ccncn2)c(OC)c1 | inconclusive: 56.2 µM [inhibitor, partial curve, poor fit]
O=C(O)c1ccc(COc2ccc(Cl)cc2)cc1 | inactive
COc1ccc(NC(=O)Nc2c(C)n(C)n(-c3ccccc3)c2=O)cc1OC | inactive
CCc1ccc(OCCOCC(O)CN2CCN(Cc3ccc(Cl)cc3)CC2)cc1 (centres undefined) | inconclusive: 44.7 µM [inhibitor, partial curve]
CC(Sc1nnc(-c2c[nH]c3ccccc23)o1)C(=O)NC(=O)NC1CCCCC1 (centres undefined) | inconclusive: 44.7 µM [inhibitor, partial curve, poor fit]
Cn1c(COc2cccc(C(F)(F)F)c2Cl)nnc1C1CC(N)C1 (centres undefined) | inactive
CN(Cc1nccn1C)C(=O)CC1C(=O)NCCN1Cc1cccc(Oc2ccccc2)c1 (centres undefined) | inactive
CC(=O)c1ccc(-c2ccccc2C2=CC(=O)CC(C)(C)C2=O)cc1 | inconclusive: 50.1 µM [inhibitor, single point]
Cc1ccc(-n2nc3c(n2)/C(=N/O)CC/C3=N\O)cc1 | inconclusive: 112 µM [inhibitor, partial curve, poor fit]
O=c1c2ccccc2cnn1Cc1n[nH]c(=S)n1C1CC2CCC1C2 (centres undefined) | inconclusive: 39.8 µM [inhibitor, partial curve, poor fit]
COc1cccc(/C=C/C(=O)c2ccc(C)c(C)c2)c1OC | inactive
Cc1ccc(C)c(OCc2cc(C(=O)N(C)Cc3n[nH]c4c3CCCC4)no2)c1 | inactive
O=C1CCCC2=C1C(c1ccccc1F)n1nc(SCc3ccc(C(=O)O)cc3)nc1N2 (centres undefined) | inconclusive: 20 µM [inhibitor, partial curve, poor fit]
CCOc1cccc(C2C(C(=O)c3ccco3)=C(O)C(=O)N2c2nnc(C)s2)c1 (centres undefined) | inconclusive: 44.7 µM [inhibitor, partial curve, poor fit]
OC(c1ccccc1)c1nc(-c2cc(F)cc(F)c2)cs1 (centres undefined) | inactive
Cc1cccc(C)c1NC(=O)CSc1nnc(-c2ccncc2)n1Cc1ccco1 | inactive
COc1ccc(-c2c(C)oc3cc(OCC(=O)Nc4nccs4)ccc3c2=O)cc1 | inactive
CCc1cc(=O)oc2cc(C)cc(OC(=O)c3ccco3)c12 | inconclusive: 6.31 µM [inhibitor, partial curve, poor fit]
CC(C)Cn1c(-c2nn(C)cc2Cl)n[nH]c1=S | inconclusive: 35.5 µM [inhibitor, partial curve, poor fit]
CCN1C(C)=CC(=O)[C@@H](O)[C@H]1c1ccccc1Br | inconclusive: 3.16 µM [inhibitor, full curve, poor fit]
COc1ccc(CNC(=O)C2CCCN(S(=O)(=O)c3ccc4c(ccn4C)c3)C2)c(OC)c1 (centres undefined) | inconclusive: 56.2 µM [inhibitor, partial curve, poor fit]
Cc1ccc2c(=O)cc(C(=O)NCc3ccccc3)oc2c1 | inconclusive: 31.6 µM [inhibitor, single point]

Structure (SMILES) | Potency
CCN(C)C(=O)C(C)N1CCc2onc(-c3ccc(-c4ccccc4)cc3)c2C1 (centres undefined) | inactive
COc1cccc(-c2[nH]nc3c2C(c2ccsc2)C(C#N)=C(N)O3)c1 (centres undefined) | inconclusive: 50.1 µM [inhibitor, partial curve]
O=C(Nc1ccccc1)c1c[nH]c2ccc(F)cc2c1=O | inactive
O=C1CC2CCN(C(=O)c3ccccc3)CC2CCN1 (centres undefined) | active: 50.1 µM
Cc1nc2cc(C(=O)O)ccc2n1-c1ccccc1 | inactive
O=C(NCCc1ccccc1)c1ccc2c(c1)S(=O)(=O)c1ccccc1C2=O | inactive
COc1cc(/C=C2\SC(N3CCC(C)CC3)=NC2=O)ccc1O | inconclusive: 70.8 µM [inhibitor, partial curve, poor fit]
Cc1ccc(S(=O)(=O)CC(=O)c2ccc(Cl)c(Cl)c2)cc1 | inconclusive: 35.5 µM [inhibitor, partial curve, poor fit]
CC1CCc2nn3ccn(CC(=O)Nc4ccc(C(F)(F)F)cc4)c(=O)c3c2C1 (centres undefined) | inactive
O=C(Cn1nc(C(=O)O)c2ccccc2c1=O)Nc1ccc(Br)cc1 | inconclusive: 50.1 µM [inhibitor, partial curve, poor fit]
O=S(=O)(CCSc1nnnn1C1CC1)c1cc(Cl)ccc1Cl | inactive
COCCNc1nc(Oc2ccc(C(N)=O)cc2)c2sccc2n1 | inactive
O=S(=O)(Nc1ccc(-c2ccc(N3CCOCC3)nn2)cc1)c1ccc(C(F)(F)F)cc1 | inactive
Cc1ccc(NC(=O)c2ccc(OCc3c(C)noc3C)cc2)c(C)c1 | inactive
O=C(O)c1ccc(Cl)c(S(=O)(=O)N2CCCCCC2)c1 | inactive
O=Cc1cc2ccc(Br)cc2[nH]1 | inactive
CCOc1ccccc1NC(=O)C1CCN(S(=O)(=O)c2ccc(OC)c(OC)c2)CC1 | inconclusive: 15.8 µM [inhibitor, partial curve, poor fit]
CS(=O)(=O)N1CCCN(S(=O)(=O)c2ccccc2)CCC(=O)NCC1 | inconclusive: 44.7 µM [inhibitor, partial curve, poor fit]
O=C(O)Cn1ccc2cc(OCCc3cccc(-c4ccc(F)cc4F)c3)cnc21 | inconclusive: 39.8 µM [inhibitor, partial curve]
CC(C)[S+](=O)([O-])N1CCCC1c1nnc2n1CCNC2 (centres undefined) | inconclusive: 3.16 µM [inhibitor, full curve, poor fit]
COc1ccc(S(=O)(=O)N=C2C=C(C)C(=O)C(C)=C2)cc1 | inconclusive: 44.7 µM [inhibitor, partial curve, poor fit]
Cc1cc(C(=O)OCC(=O)c2ccc3ccccc3c2)c2ccccc2n1 | inconclusive: 50.1 µM [inhibitor, partial curve, poor fit]
O=C(NCc1ccc2c(c1)OCO2)c1c(O)nc2sccn2c1=O | inconclusive: 0.794 µM [inhibitor, full curve, poor fit]

Part of the list above in order of SMILES length, ascending.
Structure (SMILES) | Potency
Cc1nc2cc(C(=O)O)ccc2n1-c1ccccc1 | inactive
O=C(O)c1ccc(Cl)c(S(=O)(=O)N2CCCCCC2)c1 | inactive
COc1cc(/C=C2\SC(N3CCC(C)CC3)=NC2=O)ccc1O | inconclusive: 70.8 µM [inhibitor, partial curve, poor fit]
Cc1ccc(S(=O)(=O)CC(=O)c2ccc(Cl)c(Cl)c2)cc1 | inconclusive: 35.5 µM [inhibitor, partial curve, poor fit]
CCN(C)C(=O)C(C)N1CCc2onc(-c3ccc(-c4ccccc4)cc3)c2C1 (centres undefined) | inactive
O=S(=O)(Nc1ccc(-c2ccc(N3CCOCC3)nn2)cc1)c1ccc(C(F)(F)F)cc1 | inactive

Further compounds.

Structure (SMILES) | Potency
COc1ccc(-c2nc(SCC(=O)NC(C)CCc3ccccc3)n[nH]2)cc1 (centres undefined) | inconclusive: 141 µM [inhibitor, partial curve, poor fit]
CNC(=O)[C@@H](c1ccc(Cl)cc1)N1CCC[C@H]1C(=O)NCCOC | inconclusive: 11.2 µM [inhibitor, full curve, poor fit]
N=CC1=C(O)CC(c2ccccc2)CC1=O (centres undefined) | inconclusive: 25.1 µM [inhibitor, partial curve, poor fit]
CC(Oc1cccc(F)c1)C(=O)NCCc1ccccn1 (centres undefined) | inconclusive: 44.7 µM [inhibitor, partial curve, poor fit]
Cc1ccc(Nc2nc3ccccc3nc2NS(=O)(=O)c2ccc(F)cc2)cc1F | inconclusive: 89.1 µM [inhibitor, partial curve, poor fit]
Cn1c(=O)c2c(nc(Br)n2Cc2ccc(Cl)cc2)n(C)c1=O | inconclusive: 89.1 µM [inhibitor, partial curve, poor fit]
Cc1ccc(Nc2nc(-c3ccncc3)cs2)cc1 | inactive
Fc1cccc(F)c1CNCCN1CCCC1 | inconclusive: 0.447 µM [inhibitor, full curve, poor fit]
Cc1cccc(C)c1NC(=O)CN1CCN(CCCC(c2ccc(F)cc2)c2ccc(F)cc2)CC1 | inconclusive: 50.1 µM [inhibitor, partial curve, poor fit]
Cc1cc(C)c(C(=O)CSc2nnc(N)s2)cc1C | inactive
CCC(CO)Oc1cc(NC(=O)c2cccc([N+](=O)[O-])c2)c2ncn(C(C)C)c2c1 (centres undefined) | inconclusive: 39.8 µM [inhibitor, partial curve, poor fit]
Cc1cc2nc(-c3nnnn3-c3c(C)cccc3C)c(=O)[nH]c2cc1C | inconclusive: 100 µM [inhibitor, single point]
CC(=O)N1CCC(N(CCN2CCOCC2)C(=S)Nc2ccc(C)cc2C)CC1 | inactive
CCNC(=O)NC(=O)C(C)OC(=O)c1nc(-c2ccccc2)oc1C (centres undefined) | inconclusive: 0.282 µM [inhibitor, full curve, poor fit]
CCOC(=O)C1=C(C)OC(N)=C(C#N)C1c1cc2c(cc1Br)OCO2 (centres undefined) | inconclusive: 126 µM [inhibitor, partial curve, poor fit]
CC1C/C(=N\NC(N)=S)c2cc(Cl)ccc2S1 (centres undefined) | inconclusive: 39.8 µM [inhibitor, single point]
COc1ccc(Cl)cc1C=CC=Nc1ccccc1O | inconclusive: 31.6 µM [inhibitor, partial curve, poor fit]
COc1ccc(N(C(=O)c2snc(C(N)=O)c2N)C(C(=O)NC2CCCC2)c2ccco2)cc1OC (centres undefined) | inconclusive: 126 µM [inhibitor, single point]
O=C(CSc1nc(-c2ccccc2)cn1-c1ccccc1F)Nc1ccc(F)cc1 | inactive
CC1CCN(C(c2ccccc2)c2sc3nc(-c4ccco4)nn3c2O)CC1 (centres undefined) | inconclusive: 50.1 µM [inhibitor, partial curve, poor fit]
CCc1nnc(NS(=O)(=O)c2ccc(NCc3cc(Cl)ccc3O)cc2)s1 | inconclusive: 112 µM [inhibitor, single point]
COc1ccc(N(CC(=O)Nc2cc(C)cc(C)c2)S(=O)(=O)c2ccccc2[N+](=O)[O-])c(OC)c1 | inactive
Cc1ccc(CNCCCn2ccnc2)cc1 | inconclusive: 141 µM [inhibitor, partial curve, poor fit]
